Results from the supplement of paper PMC10849652.
The list shows a part of the results.

Protein sequences, listed by entry. Tags and fused reporters are not part of them. Lines headed by an entry give the natural chain unless they say otherwise; changes in a name come on top.
UniProt P43246, whole entry, looked up: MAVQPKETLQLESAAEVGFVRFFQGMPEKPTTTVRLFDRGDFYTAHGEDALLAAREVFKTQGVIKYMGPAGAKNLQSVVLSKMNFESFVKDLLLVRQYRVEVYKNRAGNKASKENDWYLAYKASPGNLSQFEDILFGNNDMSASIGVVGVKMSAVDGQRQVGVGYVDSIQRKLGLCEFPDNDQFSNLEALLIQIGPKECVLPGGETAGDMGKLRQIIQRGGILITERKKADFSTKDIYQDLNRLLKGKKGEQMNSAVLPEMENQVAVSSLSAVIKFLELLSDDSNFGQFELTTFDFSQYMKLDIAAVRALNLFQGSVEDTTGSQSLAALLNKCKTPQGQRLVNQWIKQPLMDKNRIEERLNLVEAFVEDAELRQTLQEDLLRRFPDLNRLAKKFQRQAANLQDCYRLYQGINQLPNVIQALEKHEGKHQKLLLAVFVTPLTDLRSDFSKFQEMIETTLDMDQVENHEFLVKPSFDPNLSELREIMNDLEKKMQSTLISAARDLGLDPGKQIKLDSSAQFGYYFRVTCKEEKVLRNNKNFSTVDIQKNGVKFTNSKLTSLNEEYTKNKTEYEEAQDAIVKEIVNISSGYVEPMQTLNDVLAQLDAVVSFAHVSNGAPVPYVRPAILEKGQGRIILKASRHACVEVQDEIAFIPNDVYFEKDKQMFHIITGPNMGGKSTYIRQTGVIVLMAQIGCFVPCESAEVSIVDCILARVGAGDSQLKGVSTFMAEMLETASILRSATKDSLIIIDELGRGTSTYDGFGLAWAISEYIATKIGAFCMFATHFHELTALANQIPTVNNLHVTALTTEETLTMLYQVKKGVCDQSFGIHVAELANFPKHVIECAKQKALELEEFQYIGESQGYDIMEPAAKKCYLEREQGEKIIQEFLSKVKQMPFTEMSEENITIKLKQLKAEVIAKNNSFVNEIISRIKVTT
UniProt P49914: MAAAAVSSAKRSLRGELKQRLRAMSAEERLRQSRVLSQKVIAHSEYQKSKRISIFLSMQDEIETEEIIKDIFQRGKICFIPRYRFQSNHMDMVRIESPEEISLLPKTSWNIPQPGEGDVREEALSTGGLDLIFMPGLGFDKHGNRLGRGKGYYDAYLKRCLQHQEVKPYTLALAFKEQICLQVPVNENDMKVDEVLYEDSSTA
UniProt B2RTY4: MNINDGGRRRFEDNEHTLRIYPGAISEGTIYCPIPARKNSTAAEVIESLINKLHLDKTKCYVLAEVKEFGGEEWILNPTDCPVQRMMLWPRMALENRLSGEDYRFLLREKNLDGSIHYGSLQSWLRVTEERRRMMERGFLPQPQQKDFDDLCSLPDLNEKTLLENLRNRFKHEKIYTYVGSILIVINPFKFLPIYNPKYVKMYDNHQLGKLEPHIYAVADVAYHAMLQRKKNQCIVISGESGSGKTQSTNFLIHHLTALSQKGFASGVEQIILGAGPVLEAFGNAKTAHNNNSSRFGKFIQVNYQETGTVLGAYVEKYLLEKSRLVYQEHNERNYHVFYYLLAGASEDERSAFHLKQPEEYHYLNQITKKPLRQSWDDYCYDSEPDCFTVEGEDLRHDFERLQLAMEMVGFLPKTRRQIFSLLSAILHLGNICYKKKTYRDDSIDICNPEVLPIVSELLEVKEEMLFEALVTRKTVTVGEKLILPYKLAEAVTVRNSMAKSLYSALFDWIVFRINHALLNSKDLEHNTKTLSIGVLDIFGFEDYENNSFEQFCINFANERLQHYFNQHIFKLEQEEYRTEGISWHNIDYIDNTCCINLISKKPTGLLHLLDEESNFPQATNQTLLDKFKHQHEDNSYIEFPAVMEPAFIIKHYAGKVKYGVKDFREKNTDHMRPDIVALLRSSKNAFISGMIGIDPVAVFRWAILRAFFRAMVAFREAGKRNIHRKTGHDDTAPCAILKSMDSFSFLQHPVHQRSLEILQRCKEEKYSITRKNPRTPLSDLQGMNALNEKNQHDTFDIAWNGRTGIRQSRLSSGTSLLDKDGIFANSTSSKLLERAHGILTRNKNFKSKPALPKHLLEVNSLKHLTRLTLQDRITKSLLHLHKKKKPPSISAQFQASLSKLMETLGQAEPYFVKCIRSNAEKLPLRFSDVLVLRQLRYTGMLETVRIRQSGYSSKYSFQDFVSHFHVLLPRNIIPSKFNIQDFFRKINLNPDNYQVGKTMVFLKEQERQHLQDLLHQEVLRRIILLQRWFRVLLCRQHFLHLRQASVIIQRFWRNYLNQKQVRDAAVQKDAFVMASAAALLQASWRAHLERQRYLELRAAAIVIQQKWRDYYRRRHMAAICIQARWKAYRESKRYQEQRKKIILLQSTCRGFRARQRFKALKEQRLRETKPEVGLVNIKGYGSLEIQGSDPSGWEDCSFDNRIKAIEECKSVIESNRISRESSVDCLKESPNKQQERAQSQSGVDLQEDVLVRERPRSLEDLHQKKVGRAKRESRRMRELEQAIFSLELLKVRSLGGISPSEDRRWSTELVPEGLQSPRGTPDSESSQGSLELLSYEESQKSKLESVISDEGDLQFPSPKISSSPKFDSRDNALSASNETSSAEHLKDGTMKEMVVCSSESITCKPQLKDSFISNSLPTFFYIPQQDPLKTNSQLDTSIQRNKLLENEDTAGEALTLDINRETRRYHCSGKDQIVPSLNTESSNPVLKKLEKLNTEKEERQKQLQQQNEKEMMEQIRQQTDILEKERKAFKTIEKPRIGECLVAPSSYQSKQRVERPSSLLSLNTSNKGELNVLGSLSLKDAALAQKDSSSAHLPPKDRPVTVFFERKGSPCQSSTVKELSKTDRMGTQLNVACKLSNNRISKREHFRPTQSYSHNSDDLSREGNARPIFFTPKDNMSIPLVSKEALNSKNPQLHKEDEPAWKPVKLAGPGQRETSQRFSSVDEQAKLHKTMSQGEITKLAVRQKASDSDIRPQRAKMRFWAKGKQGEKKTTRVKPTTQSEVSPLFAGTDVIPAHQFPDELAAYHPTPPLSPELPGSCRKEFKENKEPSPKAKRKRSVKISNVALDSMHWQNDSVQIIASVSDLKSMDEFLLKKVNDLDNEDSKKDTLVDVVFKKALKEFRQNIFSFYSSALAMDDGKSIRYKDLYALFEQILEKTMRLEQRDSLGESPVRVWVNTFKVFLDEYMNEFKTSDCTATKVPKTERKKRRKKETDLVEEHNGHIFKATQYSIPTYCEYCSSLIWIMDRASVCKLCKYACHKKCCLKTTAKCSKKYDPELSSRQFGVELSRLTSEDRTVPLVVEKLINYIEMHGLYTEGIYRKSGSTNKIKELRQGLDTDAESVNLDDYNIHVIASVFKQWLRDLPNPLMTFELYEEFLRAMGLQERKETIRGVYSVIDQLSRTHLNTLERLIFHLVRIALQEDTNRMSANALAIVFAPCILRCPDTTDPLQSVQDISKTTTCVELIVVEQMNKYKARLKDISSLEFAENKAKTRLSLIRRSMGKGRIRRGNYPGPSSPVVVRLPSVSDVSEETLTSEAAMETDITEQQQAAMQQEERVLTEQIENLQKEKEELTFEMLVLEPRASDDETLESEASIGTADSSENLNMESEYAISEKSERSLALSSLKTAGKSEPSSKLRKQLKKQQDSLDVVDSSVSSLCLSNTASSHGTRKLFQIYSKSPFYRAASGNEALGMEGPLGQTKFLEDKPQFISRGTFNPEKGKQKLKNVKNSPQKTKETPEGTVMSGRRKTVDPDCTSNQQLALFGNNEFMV
UniProt Q9BTC8: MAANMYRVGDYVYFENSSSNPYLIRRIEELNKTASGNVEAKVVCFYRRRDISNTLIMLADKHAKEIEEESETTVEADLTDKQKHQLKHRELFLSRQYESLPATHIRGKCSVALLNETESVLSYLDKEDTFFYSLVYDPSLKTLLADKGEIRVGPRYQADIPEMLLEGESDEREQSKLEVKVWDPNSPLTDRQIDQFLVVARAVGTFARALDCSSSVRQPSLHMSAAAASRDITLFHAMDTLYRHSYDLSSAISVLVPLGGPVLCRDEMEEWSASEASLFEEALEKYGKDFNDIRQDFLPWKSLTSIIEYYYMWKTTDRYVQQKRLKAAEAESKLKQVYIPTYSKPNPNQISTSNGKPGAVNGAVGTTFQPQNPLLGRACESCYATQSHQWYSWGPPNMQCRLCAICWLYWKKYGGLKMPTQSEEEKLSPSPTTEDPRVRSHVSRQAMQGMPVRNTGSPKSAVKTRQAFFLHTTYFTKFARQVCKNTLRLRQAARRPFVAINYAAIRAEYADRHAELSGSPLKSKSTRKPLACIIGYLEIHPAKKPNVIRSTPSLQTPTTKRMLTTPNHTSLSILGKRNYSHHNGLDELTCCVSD
UniProt P84157: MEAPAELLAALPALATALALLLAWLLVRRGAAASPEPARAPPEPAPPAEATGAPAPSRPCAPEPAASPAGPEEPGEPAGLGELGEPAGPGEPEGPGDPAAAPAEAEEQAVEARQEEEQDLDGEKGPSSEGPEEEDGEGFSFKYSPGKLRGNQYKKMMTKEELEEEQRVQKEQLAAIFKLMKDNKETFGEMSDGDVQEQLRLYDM
MTHFD1, A0A384N5Y3, UniProt A0A384N5Y3, whole entry, looked up: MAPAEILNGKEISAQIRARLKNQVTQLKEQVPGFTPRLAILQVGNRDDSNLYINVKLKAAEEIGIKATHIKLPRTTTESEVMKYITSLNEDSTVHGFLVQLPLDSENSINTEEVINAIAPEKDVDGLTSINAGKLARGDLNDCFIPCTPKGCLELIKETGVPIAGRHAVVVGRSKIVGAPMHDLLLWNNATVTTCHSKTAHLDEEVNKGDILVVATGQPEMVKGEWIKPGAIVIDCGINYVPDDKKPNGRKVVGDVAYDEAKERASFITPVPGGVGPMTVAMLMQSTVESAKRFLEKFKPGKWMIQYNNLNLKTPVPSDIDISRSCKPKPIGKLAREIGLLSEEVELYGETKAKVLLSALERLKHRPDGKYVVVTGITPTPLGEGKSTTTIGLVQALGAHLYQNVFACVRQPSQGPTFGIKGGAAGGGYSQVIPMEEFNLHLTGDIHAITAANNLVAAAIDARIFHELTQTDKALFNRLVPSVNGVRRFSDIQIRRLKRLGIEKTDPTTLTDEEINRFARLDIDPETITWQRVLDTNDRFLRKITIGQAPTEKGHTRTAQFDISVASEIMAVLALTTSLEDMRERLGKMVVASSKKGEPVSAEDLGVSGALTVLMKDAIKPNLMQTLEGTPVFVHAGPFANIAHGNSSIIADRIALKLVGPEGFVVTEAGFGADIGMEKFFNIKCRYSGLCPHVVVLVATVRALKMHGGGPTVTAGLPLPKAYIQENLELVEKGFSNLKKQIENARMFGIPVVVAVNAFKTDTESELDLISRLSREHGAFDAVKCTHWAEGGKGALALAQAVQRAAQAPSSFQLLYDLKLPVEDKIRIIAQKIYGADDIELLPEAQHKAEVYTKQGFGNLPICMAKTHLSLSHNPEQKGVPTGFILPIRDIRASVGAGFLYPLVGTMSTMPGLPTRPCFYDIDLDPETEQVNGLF
UniProt Q68DK7: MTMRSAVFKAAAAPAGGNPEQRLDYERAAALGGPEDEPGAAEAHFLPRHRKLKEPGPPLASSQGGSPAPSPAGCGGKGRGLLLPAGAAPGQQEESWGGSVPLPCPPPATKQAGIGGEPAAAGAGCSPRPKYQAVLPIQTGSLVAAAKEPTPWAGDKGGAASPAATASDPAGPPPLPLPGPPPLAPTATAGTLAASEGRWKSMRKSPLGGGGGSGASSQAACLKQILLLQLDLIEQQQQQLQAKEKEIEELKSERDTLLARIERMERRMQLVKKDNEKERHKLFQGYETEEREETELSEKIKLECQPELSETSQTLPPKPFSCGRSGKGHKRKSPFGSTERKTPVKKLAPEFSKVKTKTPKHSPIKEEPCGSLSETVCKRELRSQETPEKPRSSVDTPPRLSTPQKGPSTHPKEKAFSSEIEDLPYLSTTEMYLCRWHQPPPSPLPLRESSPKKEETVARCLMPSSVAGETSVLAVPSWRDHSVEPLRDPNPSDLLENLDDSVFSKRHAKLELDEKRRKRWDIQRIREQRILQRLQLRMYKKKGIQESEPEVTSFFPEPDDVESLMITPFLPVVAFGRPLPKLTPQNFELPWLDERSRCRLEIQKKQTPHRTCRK

Legend:
Experiment in all cases: log2 fold change, soluble protein after heating vs DMSO (PISA); higher = thermal stabilisation; K562 cells, 10 uM, 30 min; active = over 0.2 and 3.5 SD of the protein, either way, in both replicates (recomputed)
[1] = compound: CN1CCN(CCOc2cc(OC3CCOCC3)c3c(Nc4c(Cl)ccc5c4OCO5)ncnc3c2)CC1 [saracatinib]
Summary of the method: (§1)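 K562 cells at 2×10^6 cells/mL were treated with 10 μM compound for 30 min. Aliquots were heated for 3 min across 48°C-58°C, pooled, and extracted in PBS with 0.5% NP-40 at 4°C; soluble protein was the supernatant after 21,000xg for 90 min. Soluble protein was quantified by TMTpro 16plex LC-MS/MS with channel sums equalised, and reported as log2 fold change in thermal stability against DMSO controls, with values from duplicates.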

[2] = compound: CN1CCN(c2nc(C3=C(c4c[nH]c5ccccc45)C(=O)NC3=O)c3ccccc3n2)CC1 [sotrastaurin]
Summary of the method: as §1

[3] = compound: CN1CCc2c(c3ccccc3n2Cc2ccc(C(=O)NO)cc2)C1 [Tubastatin A]
Summary of the method: as §1

[4] = compound: CNC(=O)C1=CC=CC=C1NC2=NC(=NC=C2Cl)NC3=C(C=C(C=C3)N4CCOCC4)OC
Summary of the method: as §1

[5] = compound: CNC(=O)c1ccc(Nc2ncc(C(F)(F)F)c(NCc3nccnc3N(C)S(C)(=O)=O)n2)cc1 [defactinib]
Summary of the method: as §1

[6] = compound: CNCc1ccc(-c2[nH]c3cc(F)cc4c3c2CCNC4=O)cc1 [rucaparib]
Summary of the method: as §1

[7] = compound: CNc1nc(-c2ccc3c(N)n[nH]c3c2)cc(N2C[C@@H](C(=O)NC3CCCCC3)CC[C@H]2C)n1
Summary of the method: as §1

[8] = compound: COC(=O)N[C@@H](C)CNc1nccc(-c2cn(C(C)C)nc2-c2cc(Cl)cc(NS(C)(=O)=O)c2F)n1 [encorafenib]
Summary of the method: as §1

[9] = compound: COC(=O)[C@H](CCSC)NC(=O)C1=C(C=C(C=C1)NC[C@H](CS)N)C2=CC=CC=C2
Summary of the method: as §1

[10] = compound: COC1=CC=C(C=C1)CN2C=CC3=C2C=C(C=C3)C(=O)NO
Summary of the method: as §1

[11] = compound: CON(C)C(=O)N1N=C(c2cc(F)ccc2F)S[C@@]1(CCCN)c1ccccc1 [filanesib]
Summary of the method: as §1

[12] = compound: CO[C@H]1C[C@@H]2CC[C@@H](C)[C@@](O)(O2)C(=O)C(=O)N2CCCC[C@H]2C(=O)O[C@H]([C@H](C)C[C@@H]2CC[C@H](n3cnnn3)[C@H](OC)C2)CC(=O)[C@H](C)/C=C(\C)[C@@H](O)[C@@H](OC)C(=O)[C@H](C)C[C@H](C)/C=C/C=C/C=C/1C [zotarolimus]
Summary of the method: as §1

[13] = compound: COc1cc(C(=O)O)ccc1NC(=O)[C@@H]1N[C@@H](CC(C)(C)C)[C@](C#N)(c2ccc(Cl)cc2F)[C@H]1c1cccc(Cl)c1F [idasanutlin]
Summary of the method: as §1

[14] = compound: COc1cc(Nc2ncc3c(n2)-c2ccc(Cl)cc2C(c2c(F)cccc2OC)=NC3)ccc1C(=O)O [alisertib]
Summary of the method: as §1

[15] = compound: COc1cc2nc(-c3cc(F)ccc3O)nc(N[C@@H]3CNC[C@H]3C(C)(C)O)c2cc1OC
Summary of the method: as §1

[16] = compound: COc1cc2ncnc(Nc3ccc(F)c(Cl)c3)c2cc1OCCCN1CCOCC1 [gefitinib]
Summary of the method: as §1

[17] = compound: COc1cccc2cc(-c3nc([C@H]4CC[C@H](C(=O)O)CC4)n4ncnc(N)c34)[nH]c12
Summary of the method: as §1

[18] = compound: CS(=O)(=O)CCNCc1ccc(-c2ccc3ncnc(Nc4ccc(OCc5cccc(F)c5)c(Cl)c4)c3c2)o1 [lapatinib]
Summary of the method: as §1

[19] = compound: CS(=O)(=O)N1CCN(Cc2cc3nc(-c4cccc5[nH]ncc45)nc(N4CCOCC4)c3s2)CC1 [pictilisib]
Summary of the method: as §1

Measured: log2 fold change

MSH2 (UniProt P43246)
inactive: [1] -0.006 | [2] -0.072 | [3] 0.041 | [4] 0.065 | [5] -0.153 | [6] -0.06 | [7] 0.031 | [8] 0.062 | [9] -0.037 | [10] 0.072 | [11] 0 | [12] 0.057 | [13] -0.019 | [14] -0.018 | [15] 0.024 | [16] 0.007 | [17] -0.026 | [18] -0.021 | [19] 0.144

MTHFS (UniProt P49914)
inactive: [1] -0.023 | [2] -0.017 | [3] 0.043 | [4] 0.065 | [5] -0.053 | [6] 0.013 | [7] -0.004 | [8] 0.007 | [9] 0.014 | [10] 0.032 | [11] -0.023 | [12] -0.02 | [13] -0.006 | [14] -0.065 | [15] 0.041 | [16] 0.053 | [17] 0.052 | [18] 0.028 | [19] 0.016

MYO9A isoform 4 (UniProt B2RTY4)
inactive: [1] -0.11 | [2] -0.092 | [4] -0.116 | [5] 0.167 | [7] 0.038 | [9] -0.006 | [10] -0.068 | [11] -0.063 | [13] 0.092 | [19] 0.208

MRPS31 (UniProt Q92665)
inactive: [1] 0.031 | [2] -0.088 | [3] 0.053 | [4] 0.025 | [5] 0.027 | [6] 0.031 | [7] 0.078 | [8] 0.041 | [9] 0.016 | [10] 0.016 | [11] 0.029 | [12] 0.03 | [13] -0.202 | [14] -0.008 | [15] -0.025 | [16] -0.077 | [17] -0.016 | [18] 0.054 | [19] -0.005

MRPS33 (UniProt Q9Y291)
inactive: [1] -0.033 | [2] -0.077 | [3] 0.02 | [4] -0.018 | [5] 0.087 | [6] 0.119 | [7] 0.04 | [8] 0.024 | [9] 0.02 | [10] -0.033 | [11] 0.002 | [12] 0.043 | [13] -0.167 | [14] -0.052 | [15] -0.057 | [16] 0 | [17] 0.008 | [18] 0.036 | [19] -0.1

MTA3 (UniProt Q9BTC8)
inactive: [1] -0.001 | [2] -0.295 | [3] 0.062 | [4] -0.049 | [6] -0.002 | [7] -0.002 | [8] 0.094 | [11] -0.283 | [15] -0.152 | [18] -0.036 | [19] -0.023

MRPS26 (UniProt Q9BYN8)
inactive: [1] -0.094 | [2] -0.013 | [3] 0.156 | [4] 0.003 | [5] -0.01 | [6] 0.093 | [7] 0.122 | [8] 0.089 | [9] 0.003 | [10] -0.039 | [11] 0.09 | [12] 0.04 | [13] -0.145 | [14] -0.078 | [15] 0.041 | [17] 0.072 | [18] 0.074 | [19] -0.155

MXRA7 (UniProt P84157)
inactive: [1] 0.127 | [2] 0.027 | [3] -0.02 | [4] 0.007 | [5] -0.104 | [6] -0.093 | [7] -0.033 | [8] 0.008 | [9] -0.025 | [10] -0.248 | [11] 0.135 | [12] 0.023 | [13] -0.066 | [14] -0.017 | [15] -0.007 | [16] 0.058 | [17] 0.067 | [18] 0 | [19] -0.053

MRPS9 (UniProt P82933)
inactive: [1] -0.064 | [2] -0.072 | [3] 0.04 | [4] 0.013 | [5] 0.056 | [6] 0.087 | [7] 0.136 | [8] 0.05 | [9] -0.081 | [10] 0.009 | [11] 0.007 | [12] 0.065 | [13] -0.16 | [14] 0.076 | [15] -0.021 | [16] 0.084 | [17] 0.016 | [18] 0.096 | [19] -0.049

MTHFD1, A0A384N5Y3
inactive: [1] -0.047 | [2] 0.025 | [3] 0.032 | [5] -0.173 | [6] -0.039 | [7] -0.004 | [8] -0.003 | [9] -0.036 | [11] -0.025 | [12] -0.032 | [13] 0.024 | [14] -0.011 | [15] 0.055 | [16] 0.075 | [17] 0.001 | [18] -0.016 | [19] 0.107

MSL1 (UniProt Q68DK7)
inactive: [1] -0.026 | [2] 0.052 | [4] -0.253 | [5] -0.069 | [6] -0.042 | [7] 0.04 | [8] -0.088 | [9] -0.017 | [10] -0.163 | [11] -0.013 | [13] -0.113 | [14] -0.081 | [15] 0.275 | [16] 0.04 | [17] -0.012 | [18] -0.117 | [19] 0.197
